The other results are listed elsewhere or left out. Shown are side measurements of this screen, not its main read-out; they come without a call. Most of these compounds were active or inconclusive in the main read-out, so they are no random draw. Words in brackets tell the shape of the fitted curve; partial curves, single points and poor fits give uncertain potencies.
Assay: qHTS Assay for Lipid Storage Modulators in Drosophila S3 Cells;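 as to cell number change: cells counted by Cell Tracker Red CMTPX staining in the red channel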
Settings: BODIPY lipid droplet fluorescence, 18-24 h; for cell number change: measured here: cell count max response, cells fed with added oleic acid
In short: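 Drosophila S3 cells got compounds at several concentrations plus oleic acid (400 uM solution). Laser-scanning cytometry with 488 nm excitation read lipid droplets at 500-530 nm and cells at 575-640 nm. Percent activity was relative to 20 uM Triacsin C.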

[1] = measured here: lipid fluorescence (Fed channel) AC50, cells fed with added oleic acid
[2] = measured here: cell number channel AC50, cells fed with added oleic acid

Row | SMILES | cell number change | AC50 [1] | AC50 [2]
1 | Cc1cc(OCC(=O)NCC(c2cccs2)N2CCOCC2)ccc1C(C)C (stereo not drawn) | -24.1% | 20.6 µM [falling, partial curve] | 
2 | C=CCNC(=O)c1ccc(C)cc1Cl | 12.5% |  | 
3 | Cc1ccc(C)c(NS(=O)(=O)c2ccc(OCC(=O)N3CCCC3)cc2)c1 |  |  | 0.0731 µM [rising, full curve, poor fit]
4 | O=C(O)COc1ccccc1/C=N/Nc1ccc(S(=O)(=O)Nc2ccc(Cl)cc2)cc1[N+](=O)[O-] |  |  | 0.517 µM [rising, partial curve]
5 | COC(=O)[C@@]12CCCCN1[C@H](c1ccc(-c3cc(C(C)=O)cs3)cc1)[C@H]1C(=O)N(C)C(=O)[C@H]12 | -53.8% | 6.51 µM [falling, single point] | 14.6 µM [falling, partial curve]
6 | O=C(CCS(=O)(=O)c1ccc(Cl)cc1)NCCN1C(=O)S/C(=C\c2ccccc2F)C1=O | 1.18% | 29.1 µM [falling, single point] | 
7 | COc1ccc(-n2ncc3c(=O)n(CC(=O)Nc4ccc(S(=O)(=O)N5CCOCC5)cc4)cnc32)cc1 | 9.38% | 0.461 µM [rising, single point] | 
8 | Cc1ccc(OCC(=O)N2CCN(c3ccc([N+](=O)[O-])c(N4CCOCC4)c3)CC2)cc1 | 72.5% |  | 3.66 µM [falling, partial curve]
9 | O=C1CCCC2=C1C(c1cccc(O)c1)c1c(ccc3ncccc13)N2 (stereo not drawn) | -13.1% |  | 
10 | CC(C)(C)N1NC2(CCCCC2)NC1=S | -39.3% |  | 20.6 µM [falling, single point]
11 | COc1ccc(N=C2SC(CC(=O)Nc3ccccc3)C(=O)N2Cc2ccccn2)cc1 (stereo not drawn) | 57.6% | 0.082 µM [rising, full curve] | 0.0146 µM [rising, full curve]
12 | NC(=O)COc1ccc(/C=N\NC(=O)c2ccc(-c3ccccc3)cc2)cc1 | 15% | 23.1 µM [rising, partial curve, poor fit] | 
13 | CN(c1ccccc1)S(=O)(=O)c1cccc(NC(=O)c2cccc(C#N)c2)c1 | 1.1% | 1.84 µM [rising, partial curve] | 
14 | O/N=C/c1ccc(OCc2ccccc2F)c(Cl)c1 |  |  | 3.66 µM [rising, single point]
15 | COc1ccc(N2CCN(S(=O)(=O)CCNC(=O)c3cccs3)CC2)cc1 | 10% | 0.58 µM [rising, full curve, poor fit] | 
16 | CCc1ccc(/C=C2\Oc3ccc(C(=O)OC)cc3C2=O)cc1 | 8.48% | 0.461 µM [rising, single point] | 
17 | O=C(O)c1ccc(S(=O)(=O)N(Cc2ccccc2)Cc2ccccc2)cc1 |  | 0.731 µM [rising, full curve] | 0.82 µM [rising, full curve, poor fit]
18 | CCN1CCN(c2ccc(S(=O)(=O)N3CCOCC3)cc2NC(=O)/C=C/c2ccc(OC)cc2OC)CC1 | 43.8% |  | 2.59 µM [rising, full curve, poor fit]
19 | O=C(O)C1CSC(c2ccco2)N1 (stereo not drawn) |  | 2.91 µM [rising, full curve, poor fit] | 
20 | O=C(/C=C/c1c(Cl)cccc1Cl)n1cccn1 | -42% | 16.4 µM [falling, partial curve] | 20.6 µM [falling, partial curve]

Quoted at random: four entries already listed
Row | SMILES | cell number change | AC50 [1] | AC50 [2]
7 | COc1ccc(-n2ncc3c(=O)n(CC(=O)Nc4ccc(S(=O)(=O)N5CCOCC5)cc4)cnc32)cc1 | 9.38% | 0.461 µM [rising, single point] | 
19 | O=C(O)C1CSC(c2ccco2)N1 (stereo not drawn) |  | 2.91 µM [rising, full curve, poor fit] | 
12 | NC(=O)COc1ccc(/C=N\NC(=O)c2ccc(-c3ccccc3)cc2)cc1 | 15% | 23.1 µM [rising, partial curve, poor fit] | 
15 | COc1ccc(N2CCN(S(=O)(=O)CCNC(=O)c3cccs3)CC2)cc1 | 10% | 0.58 µM [rising, full curve, poor fit] | 

(next part)

Row | SMILES | cell number change | AC50 [1] | AC50 [2]
21 | CCOC(=O)Cc1csc(NC(=O)c2ccc(S(=O)(=O)N3CCOCC3)cc2)n1 | 7.92% | 0.731 µM [falling, partial curve, poor fit] | 
22 | Cc1[nH]nc2c1C(C1CC=CCC1)C(C#N)=C(N)O2 (stereo not drawn) | -4.45% |  | 
23 | CCN(c1cccc(C)c1)S(=O)(=O)c1cc(CN2C(=O)c3cccnc3C2=O)ccc1OC |  | 4.11 µM [falling, full curve] | 
24 | O=C(CCC1CCN(Cc2ccccc2O)CC1)NC1CC1 | 16.1% | 0.517 µM [falling, full curve, poor fit] | 
25 | Cc1ccc2[nH]c(=O)c(CN(Cc3ccc4c(c3)OCO4)Cc3nnnn3C3CCCC3)cc2c1 | -76.3% | 0.326 µM [rising, full curve, poor fit] | 29.1 µM [falling, single point]
26 | CCC(=O)Oc1ccc(NC(=O)c2ccco2)cc1 | 81.2% |  | 0.0146 µM [rising, single point]
27 | CCOc1ccc(NC(=O)C2CCN(S(=O)(=O)c3cccs3)CC2)cc1 | -0.901% |  | 
28 | O=C(NC(=S)NC(c1ccccc1)c1ccncc1)c1ccccc1 (stereo not drawn) | 2.12% | 0.00461 µM [rising, full curve, poor fit] | 
29 | CCOc1c(Br)cc(C(N)=O)cc1OC | -31.4% | 29.1 µM [rising, single point] | 3.26 µM [falling, partial curve, poor fit]
30 | COc1ccc(N2CCN(C(=O)C(=O)c3c[nH]c4ccccc34)CC2)cc1 | -16.7% | 11.6 µM [rising, partial curve, poor fit] | 
31 | Cn1c(COc2ccccc2)nnc1SCCSc1nnc(COc2ccccc2)n1C | -17.7% | 6.51 µM [falling, single point] | 0.651 µM [falling, full curve, poor fit]
32 | CN1C(=O)C(C)(C)c2cc(S(=O)(=O)N3CCCC3C(=O)NCc3ccccc3Cl)ccc21 (stereo not drawn) | -16.7% | 0.00517 µM [falling, full curve, poor fit] | 
33 | Cc1ccc(C(=O)CSc2nnc(C3CC3)n2C2CC2)s1 | -4.52% | 3.66 µM [falling, single point] | 
34 | CCOc1ccc(C(C)=O)cc1CSc1nc2nc(C)cc(C)n2n1 |  | 0.461 µM [falling, single point] | 
35 | COc1ccc(CC(=O)NCc2nnc(SCC(=O)Nc3ncc(C)s3)n2C)cc1 | 12.9% |  | 
36 | Cc1ccccc1NC(=O)CSc1nc2ccccc2c2nc(CCn3cncc3C)nn12 | -1.59% | 0.92 µM [rising, partial curve] | 
37 | CS(=O)(=O)N1CCc2cc(C(=O)Nc3cccc([N+](=O)[O-])c3)ccc21 | 2.05% | 29.1 µM [rising, single point] | 
38 | Cn1c2ccccc2c2nn(-c3ccccc3)c(=O)cc21 | -16% |  | 
39 | Cc1nc(C)c(C(=O)OCC(=O)NCc2ccccc2)s1 |  | 0.82 µM [falling, full curve] | 
40 | Cc1ccc(-c2noc(-c3ccccc3C(=O)NCc3ccco3)n2)cc1 | 9.55% | 0.00517 µM [rising, full curve, poor fit] | 0.00411 µM [rising, full curve, poor fit]

Row | SMILES | cell number change | AC50 [1] | AC50 [2]
41 | CCc1nnc(NC(=O)C2c3ccccc3Oc3ccccc32)s1 | -22.7% | 5.8 µM [falling, single point] | 
42 | O=C(OC(C(=O)NCc1cccs1)c1ccc(F)cc1)c1ccco1 (stereo not drawn) | 3.17% | 2.59 µM [rising, partial curve, poor fit] | 
43 | Clc1cccc2sc(N3CCCCC3)nc12 | 6.8% | 0.731 µM [falling, full curve] | 1.16 µM [falling, full curve, poor fit]
44 | COc1ccc(NC(=O)Cc2cccc(F)c2)cc1S(=O)(=O)Nc1ccccc1Cl | 6.28% | 5.8 µM [rising, single point] | 
45 | COc1ccc(CN2C(=O)CN(C3CCCCCC3)C(=O)C2c2ccc(F)cc2)cc1 (stereo not drawn) | 18.5% | 7.31 µM [rising, partial curve] | 
46 | CCCn1nnc(NC(=S)NC(=O)/C=C/c2ccco2)n1 | 30.6% |  | 25.9 µM [rising, partial curve]
47 | c1csc(-c2cc(N3CCCCC3)c3ccccc3n2)c1 | 92.2% | 8.2 µM [rising, partial curve] | 9.2 µM [rising, partial curve]
48 | COc1ccc(CC(=O)Nc2c(C(N)=O)oc3ccccc23)cc1OC | 20.7% |  | 4.61 µM [rising, partial curve]
49 | CCOC(=O)c1ccc(NC(=O)c2nc(SC)ncc2Cl)cc1 | 15.6% | 2.91 µM [falling, single point] | 
50 | COc1ccc(-c2csc(NC(=O)C3=COCCO3)n2)c(OC)c1 | -16.6% | 29.1 µM [falling, single point] | 
51 | COC(=O)[C@@H]1CC[C@H](C)[C@@H](c2ccc(C)cc2)N1C(=O)c1ccc(/C=N/O[C@H](C)c2cn([C@@H]3COC[C@H]3O)nn2)cc1 | -1.34% | 32.6 µM [rising, single point] | 
52 | O=C(CCCN1C(=O)c2cccc3cccc(c23)C1=O)N1CCc2ccccc2C1 | -40.8% | 13 µM [falling, partial curve, poor fit] | 11.6 µM [falling, partial curve]
53 | CC1CCN(C(=O)CN2C(=O)NC3(CCCc4ccccc43)C2=O)CC1 (stereo not drawn) | 162% | 0.731 µM [rising, single point] | 29.1 µM [rising, single point]
54 | Cc1nc2nc(-c3ccc(Cl)cc3)[nH]n2c(=O)c1Cc1ccccc1 |  | 0.517 µM [rising, single point] | 
55 | COc1ccc(C(=O)COC(=O)COc2ccc(C)c(C)c2)cc1 | -1.64% | 18.4 µM [rising, single point] | 
56 | OC(COCc1cccs1)CN1CCN(c2cccc(C(F)(F)F)c2)CC1 (stereo not drawn) | -29.6% |  | 
57 | CCOC(=O)C(NC(C)=O)(N1CCOCC1)C(F)(F)F (stereo not drawn) | -15% | 2.59 µM [falling, partial curve] | 
58 | COc1ccc(C(=O)NC2CCSc3ccccc32)cc1 (stereo not drawn) | 30.4% | 0.461 µM [rising, full curve, poor fit] | 3.26 µM [rising, full curve, poor fit]
